These are yes or no findings as the source states them, for the method shown. Some entries that bind do so weakly or less than the wild type.
How the values were obtained:
human VEGF-B (human) [1] = molecular target: T1, human VEGF-B (human) (UniProt P49765); test: binding ELISA on coated VEGFB
T1 sequence (looked up): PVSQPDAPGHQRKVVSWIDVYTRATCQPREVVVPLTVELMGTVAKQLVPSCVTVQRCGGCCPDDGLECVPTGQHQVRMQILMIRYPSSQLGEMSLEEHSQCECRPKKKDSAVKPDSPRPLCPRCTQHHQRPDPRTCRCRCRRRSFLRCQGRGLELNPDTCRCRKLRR

Chains of the proteins cited; added tags and fusions are not shown. Lines headed by an entry give the natural chain unless they say otherwise; changes in a name come on top. Residues count along the entry.
UniProt P17948, residues 27-756: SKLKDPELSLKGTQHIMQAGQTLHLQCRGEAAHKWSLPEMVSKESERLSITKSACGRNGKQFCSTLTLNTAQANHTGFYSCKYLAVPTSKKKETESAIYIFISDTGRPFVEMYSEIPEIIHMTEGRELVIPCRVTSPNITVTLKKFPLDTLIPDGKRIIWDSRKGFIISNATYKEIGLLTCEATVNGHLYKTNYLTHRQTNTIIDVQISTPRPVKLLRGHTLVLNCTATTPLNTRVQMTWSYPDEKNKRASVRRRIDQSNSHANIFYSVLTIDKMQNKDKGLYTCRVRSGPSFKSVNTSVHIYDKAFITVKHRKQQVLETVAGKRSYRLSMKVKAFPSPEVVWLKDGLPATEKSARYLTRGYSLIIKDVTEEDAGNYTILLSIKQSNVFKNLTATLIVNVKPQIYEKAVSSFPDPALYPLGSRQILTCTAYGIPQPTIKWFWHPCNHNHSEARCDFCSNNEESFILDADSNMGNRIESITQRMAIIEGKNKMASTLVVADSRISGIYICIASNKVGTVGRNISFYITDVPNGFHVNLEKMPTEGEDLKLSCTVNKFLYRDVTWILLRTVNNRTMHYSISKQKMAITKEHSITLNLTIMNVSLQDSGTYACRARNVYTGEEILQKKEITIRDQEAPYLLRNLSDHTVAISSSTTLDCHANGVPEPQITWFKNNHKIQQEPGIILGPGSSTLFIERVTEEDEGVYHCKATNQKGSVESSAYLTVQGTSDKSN

human PIGF (human) [2] = molecular target: T2, human PIGF (human) (UniProt P49763); test: binding ELISA on coated hPIGF (1 µg/mL)
T2 sequence (looked up): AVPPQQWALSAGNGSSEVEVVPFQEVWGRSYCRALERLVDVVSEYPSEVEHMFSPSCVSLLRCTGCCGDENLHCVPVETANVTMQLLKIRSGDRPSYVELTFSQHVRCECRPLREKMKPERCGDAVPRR

human PIGF (human) [3] = molecular target: T2, human PIGF (human); test: binding ELISA on coated PIGF
human VEGF-B (human) [4] = molecular target: T1, human VEGF-B (human); test: binding ELISA on coated hVEGF-B (1 µg/mL)

Measured: binding

human VEGFR1-Fc chimera (from UniProt P17948 27-756) (Fc fusion)
binds: all assays above
